# Experimental data taken from the supplement of paper PMC10849652.
# By UniProt entry, the sequences of proteins in these tests, tags left out. Where a name states a change or a piece, a line headed by the entry shows the natural chain unless it says otherwise.
# UniProt Q14157: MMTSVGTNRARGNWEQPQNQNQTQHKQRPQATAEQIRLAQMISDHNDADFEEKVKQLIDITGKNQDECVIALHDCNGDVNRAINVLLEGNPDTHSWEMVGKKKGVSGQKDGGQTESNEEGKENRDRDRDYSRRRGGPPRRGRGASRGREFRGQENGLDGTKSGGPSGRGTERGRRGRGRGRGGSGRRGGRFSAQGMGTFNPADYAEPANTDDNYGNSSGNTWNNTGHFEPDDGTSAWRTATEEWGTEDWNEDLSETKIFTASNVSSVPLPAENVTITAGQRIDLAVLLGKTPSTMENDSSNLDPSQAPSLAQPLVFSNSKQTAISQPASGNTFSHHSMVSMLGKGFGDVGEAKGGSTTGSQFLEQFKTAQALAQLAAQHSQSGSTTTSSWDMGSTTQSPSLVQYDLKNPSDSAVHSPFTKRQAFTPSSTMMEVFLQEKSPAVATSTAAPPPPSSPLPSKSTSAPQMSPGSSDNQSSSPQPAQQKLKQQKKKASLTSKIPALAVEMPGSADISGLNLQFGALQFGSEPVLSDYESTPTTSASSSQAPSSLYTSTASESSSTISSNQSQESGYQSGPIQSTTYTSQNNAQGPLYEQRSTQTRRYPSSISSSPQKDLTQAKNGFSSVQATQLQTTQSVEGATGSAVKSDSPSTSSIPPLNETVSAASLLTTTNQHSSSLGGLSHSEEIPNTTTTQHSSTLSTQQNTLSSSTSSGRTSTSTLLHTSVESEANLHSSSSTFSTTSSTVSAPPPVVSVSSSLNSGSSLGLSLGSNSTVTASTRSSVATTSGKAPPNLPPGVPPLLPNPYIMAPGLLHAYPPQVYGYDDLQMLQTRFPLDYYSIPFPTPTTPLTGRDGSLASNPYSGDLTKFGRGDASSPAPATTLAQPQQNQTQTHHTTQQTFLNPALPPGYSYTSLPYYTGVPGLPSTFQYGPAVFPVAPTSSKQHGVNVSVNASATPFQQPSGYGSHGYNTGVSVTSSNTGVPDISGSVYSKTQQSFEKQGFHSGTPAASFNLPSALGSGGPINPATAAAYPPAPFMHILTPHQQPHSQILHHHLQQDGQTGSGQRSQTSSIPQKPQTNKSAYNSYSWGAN
# UniProt Q8N2K1: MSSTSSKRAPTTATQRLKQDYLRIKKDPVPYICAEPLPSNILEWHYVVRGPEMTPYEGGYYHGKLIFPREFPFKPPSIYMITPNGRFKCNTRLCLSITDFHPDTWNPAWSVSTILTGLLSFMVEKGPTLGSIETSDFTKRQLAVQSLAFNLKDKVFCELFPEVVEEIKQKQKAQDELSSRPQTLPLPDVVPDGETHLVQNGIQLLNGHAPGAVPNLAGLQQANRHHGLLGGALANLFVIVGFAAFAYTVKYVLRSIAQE
# UniProt Q9H3M7: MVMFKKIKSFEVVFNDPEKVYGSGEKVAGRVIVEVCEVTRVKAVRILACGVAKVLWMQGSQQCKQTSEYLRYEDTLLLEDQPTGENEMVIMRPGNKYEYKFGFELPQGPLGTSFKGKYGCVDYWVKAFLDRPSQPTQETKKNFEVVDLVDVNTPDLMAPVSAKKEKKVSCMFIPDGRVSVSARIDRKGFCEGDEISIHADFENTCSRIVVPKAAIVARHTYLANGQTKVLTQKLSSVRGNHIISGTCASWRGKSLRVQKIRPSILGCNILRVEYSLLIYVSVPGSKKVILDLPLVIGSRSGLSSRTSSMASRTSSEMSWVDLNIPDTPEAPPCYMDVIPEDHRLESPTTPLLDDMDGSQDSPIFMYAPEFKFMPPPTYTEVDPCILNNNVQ
# UniProt P43897: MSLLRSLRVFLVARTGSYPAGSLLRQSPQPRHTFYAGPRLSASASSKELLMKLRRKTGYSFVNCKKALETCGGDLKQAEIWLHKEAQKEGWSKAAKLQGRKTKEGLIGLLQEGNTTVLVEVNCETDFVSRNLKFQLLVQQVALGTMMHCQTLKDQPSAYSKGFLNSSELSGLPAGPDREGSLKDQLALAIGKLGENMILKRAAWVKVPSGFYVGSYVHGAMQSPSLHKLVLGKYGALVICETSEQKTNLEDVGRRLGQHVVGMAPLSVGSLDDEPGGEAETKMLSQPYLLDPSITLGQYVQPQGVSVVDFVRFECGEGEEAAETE
# UniProt P26368, whole entry, looked up: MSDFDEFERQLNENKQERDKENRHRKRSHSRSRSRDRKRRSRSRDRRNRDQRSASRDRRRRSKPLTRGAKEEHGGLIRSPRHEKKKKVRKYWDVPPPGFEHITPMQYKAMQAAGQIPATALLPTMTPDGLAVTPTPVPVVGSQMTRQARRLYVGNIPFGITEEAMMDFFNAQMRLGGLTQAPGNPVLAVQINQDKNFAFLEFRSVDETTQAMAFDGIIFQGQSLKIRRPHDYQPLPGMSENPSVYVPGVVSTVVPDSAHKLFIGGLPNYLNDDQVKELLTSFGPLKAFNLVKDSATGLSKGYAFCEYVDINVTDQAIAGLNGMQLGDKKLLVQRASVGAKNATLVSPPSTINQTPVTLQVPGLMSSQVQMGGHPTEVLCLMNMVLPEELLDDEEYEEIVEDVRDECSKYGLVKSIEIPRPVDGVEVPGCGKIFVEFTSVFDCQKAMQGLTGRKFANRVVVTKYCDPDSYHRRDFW
# UniProt Q5R3I4: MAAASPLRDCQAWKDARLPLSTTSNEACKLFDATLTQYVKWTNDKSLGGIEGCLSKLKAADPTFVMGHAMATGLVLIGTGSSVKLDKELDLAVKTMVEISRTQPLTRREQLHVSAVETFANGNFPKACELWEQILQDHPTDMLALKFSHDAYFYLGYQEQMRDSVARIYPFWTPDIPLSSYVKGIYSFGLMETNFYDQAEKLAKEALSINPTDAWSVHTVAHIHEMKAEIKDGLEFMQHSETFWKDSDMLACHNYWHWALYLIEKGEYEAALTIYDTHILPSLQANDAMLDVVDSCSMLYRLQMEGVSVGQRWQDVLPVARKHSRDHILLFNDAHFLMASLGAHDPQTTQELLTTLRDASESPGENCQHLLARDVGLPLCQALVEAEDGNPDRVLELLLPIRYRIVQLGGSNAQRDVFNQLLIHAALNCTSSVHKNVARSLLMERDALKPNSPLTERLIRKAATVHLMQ
# UniProt Q9NZ09: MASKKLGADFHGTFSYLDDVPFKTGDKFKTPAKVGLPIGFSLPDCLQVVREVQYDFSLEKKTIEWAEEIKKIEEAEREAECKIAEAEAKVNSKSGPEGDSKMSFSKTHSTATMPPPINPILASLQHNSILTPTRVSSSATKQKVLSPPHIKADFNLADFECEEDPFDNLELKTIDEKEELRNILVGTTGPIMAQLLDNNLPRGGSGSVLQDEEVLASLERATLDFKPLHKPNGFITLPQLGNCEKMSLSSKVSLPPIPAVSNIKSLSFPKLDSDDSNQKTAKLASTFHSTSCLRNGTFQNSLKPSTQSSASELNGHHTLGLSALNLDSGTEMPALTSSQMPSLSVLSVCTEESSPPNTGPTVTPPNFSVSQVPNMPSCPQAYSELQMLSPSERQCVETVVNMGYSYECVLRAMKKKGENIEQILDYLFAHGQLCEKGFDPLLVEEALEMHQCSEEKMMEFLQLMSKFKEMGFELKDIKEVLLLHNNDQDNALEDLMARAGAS
# UniProt Q9BRA2: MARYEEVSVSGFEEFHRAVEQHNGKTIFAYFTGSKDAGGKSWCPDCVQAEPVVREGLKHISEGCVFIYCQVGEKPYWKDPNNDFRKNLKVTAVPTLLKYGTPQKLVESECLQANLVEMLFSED
# UniProt O43156, whole entry, looked up: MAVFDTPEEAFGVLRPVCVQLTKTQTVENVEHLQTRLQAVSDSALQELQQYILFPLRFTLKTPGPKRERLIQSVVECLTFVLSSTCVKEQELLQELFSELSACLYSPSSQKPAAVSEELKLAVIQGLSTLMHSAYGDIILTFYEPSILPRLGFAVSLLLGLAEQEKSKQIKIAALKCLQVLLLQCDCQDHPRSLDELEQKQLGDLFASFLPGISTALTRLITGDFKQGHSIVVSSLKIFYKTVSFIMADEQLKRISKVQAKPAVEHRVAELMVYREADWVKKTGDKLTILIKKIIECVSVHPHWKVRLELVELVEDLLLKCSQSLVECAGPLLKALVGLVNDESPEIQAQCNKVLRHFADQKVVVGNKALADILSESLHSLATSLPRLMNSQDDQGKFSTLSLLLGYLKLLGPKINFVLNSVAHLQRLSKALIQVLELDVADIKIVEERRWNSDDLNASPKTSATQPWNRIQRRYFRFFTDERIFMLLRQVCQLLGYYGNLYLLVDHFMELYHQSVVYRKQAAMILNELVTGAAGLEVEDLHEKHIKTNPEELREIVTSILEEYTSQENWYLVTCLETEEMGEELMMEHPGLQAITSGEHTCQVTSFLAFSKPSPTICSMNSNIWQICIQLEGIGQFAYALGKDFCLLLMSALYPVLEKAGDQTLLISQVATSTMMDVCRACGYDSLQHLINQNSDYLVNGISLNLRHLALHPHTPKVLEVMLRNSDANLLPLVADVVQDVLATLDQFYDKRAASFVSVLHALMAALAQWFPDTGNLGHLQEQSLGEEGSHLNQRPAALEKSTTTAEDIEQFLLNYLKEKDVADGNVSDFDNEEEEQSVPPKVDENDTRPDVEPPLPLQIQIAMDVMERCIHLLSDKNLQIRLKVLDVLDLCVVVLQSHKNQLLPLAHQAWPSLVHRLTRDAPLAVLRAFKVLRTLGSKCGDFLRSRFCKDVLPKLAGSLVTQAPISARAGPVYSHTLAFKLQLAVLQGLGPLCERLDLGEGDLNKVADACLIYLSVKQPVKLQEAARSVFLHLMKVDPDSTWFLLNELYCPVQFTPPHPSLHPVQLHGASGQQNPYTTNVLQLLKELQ
# UniProt Q12999: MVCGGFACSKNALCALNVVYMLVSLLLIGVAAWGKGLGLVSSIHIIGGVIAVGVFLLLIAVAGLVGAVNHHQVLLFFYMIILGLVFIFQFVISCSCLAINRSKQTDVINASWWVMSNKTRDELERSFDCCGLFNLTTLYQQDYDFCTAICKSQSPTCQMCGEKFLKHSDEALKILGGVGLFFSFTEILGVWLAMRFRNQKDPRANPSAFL
# UniProt Q969T4: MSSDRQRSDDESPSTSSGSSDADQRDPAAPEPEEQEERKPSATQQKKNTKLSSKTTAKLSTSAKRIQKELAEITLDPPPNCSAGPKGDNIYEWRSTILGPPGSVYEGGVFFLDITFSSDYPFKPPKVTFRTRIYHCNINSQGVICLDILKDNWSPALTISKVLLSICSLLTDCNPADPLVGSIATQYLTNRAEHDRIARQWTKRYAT
# UniProt Q01081: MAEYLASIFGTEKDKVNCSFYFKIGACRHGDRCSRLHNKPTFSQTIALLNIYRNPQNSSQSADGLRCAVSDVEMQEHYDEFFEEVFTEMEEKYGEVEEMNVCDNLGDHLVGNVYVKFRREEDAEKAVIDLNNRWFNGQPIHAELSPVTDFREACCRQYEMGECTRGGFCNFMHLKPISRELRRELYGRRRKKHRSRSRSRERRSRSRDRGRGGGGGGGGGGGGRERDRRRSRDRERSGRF
# UniProt P51668: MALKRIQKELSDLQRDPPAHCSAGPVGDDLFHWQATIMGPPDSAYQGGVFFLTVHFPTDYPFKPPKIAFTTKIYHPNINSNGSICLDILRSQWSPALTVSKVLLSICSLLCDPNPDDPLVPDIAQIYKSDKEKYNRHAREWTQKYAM
# UniProt P60604: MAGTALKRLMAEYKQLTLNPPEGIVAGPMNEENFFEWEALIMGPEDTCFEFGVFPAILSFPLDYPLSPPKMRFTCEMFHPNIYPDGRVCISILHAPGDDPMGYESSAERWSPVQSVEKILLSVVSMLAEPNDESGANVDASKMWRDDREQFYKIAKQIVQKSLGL
# UniProt P33981: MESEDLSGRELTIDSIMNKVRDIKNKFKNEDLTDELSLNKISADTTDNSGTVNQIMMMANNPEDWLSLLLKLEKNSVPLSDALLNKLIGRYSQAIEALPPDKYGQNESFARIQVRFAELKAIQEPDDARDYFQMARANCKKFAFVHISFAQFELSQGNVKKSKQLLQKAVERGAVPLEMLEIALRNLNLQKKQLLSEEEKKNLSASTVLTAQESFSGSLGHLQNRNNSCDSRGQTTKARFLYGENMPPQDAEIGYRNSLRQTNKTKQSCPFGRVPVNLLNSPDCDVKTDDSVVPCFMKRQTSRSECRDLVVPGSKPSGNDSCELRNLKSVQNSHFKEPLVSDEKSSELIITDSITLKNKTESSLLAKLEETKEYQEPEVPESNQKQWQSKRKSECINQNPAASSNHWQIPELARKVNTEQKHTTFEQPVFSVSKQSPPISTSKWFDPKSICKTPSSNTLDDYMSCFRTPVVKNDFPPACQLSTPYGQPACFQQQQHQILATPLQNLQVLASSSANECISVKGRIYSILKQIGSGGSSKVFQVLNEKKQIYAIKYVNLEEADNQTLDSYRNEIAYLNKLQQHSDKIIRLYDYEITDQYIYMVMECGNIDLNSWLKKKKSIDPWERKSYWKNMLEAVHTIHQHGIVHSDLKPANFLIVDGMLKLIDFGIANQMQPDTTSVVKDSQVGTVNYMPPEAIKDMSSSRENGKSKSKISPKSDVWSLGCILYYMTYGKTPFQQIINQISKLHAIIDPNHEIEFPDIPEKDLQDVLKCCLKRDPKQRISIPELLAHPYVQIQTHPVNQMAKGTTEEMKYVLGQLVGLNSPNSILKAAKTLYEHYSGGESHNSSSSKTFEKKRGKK
# Some of the results follow.
# Experiments:
# Assay in all cases: log2 fold change, soluble protein after heating vs DMSO (PISA); higher = thermal stabilisation; K562 cells, 10 uM, 30 min; active = over 0.2 and 3.5 SD of the protein, either way, in both replicates (recomputed)
# [1] = compound: CN1CCN(CCOc2cc(OC3CCOCC3)c3c(Nc4c(Cl)ccc5c4OCO5)ncnc3c2)CC1 [saracatinib]
# In short: (§1)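 Quantification of soluble protein used TMTpro 16plex LC-MS/MS, with channel sums equalised. Samples were the supernatant after 21,000xg for 90 min of pooled aliquots from K562 cells (2×10^6 cells/mL) treated with 10 μM compound for 30 min, heated for 3 min over 48°C-58°C, and extracted in PBS with 0.5% NP-40 at 4°C. Values, from duplicates, describe thermal stability against control samples on a log2 fold-change scale.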
# [2] = compound: CN1CCN(c2nc(C3=C(c4c[nH]c5ccccc45)C(=O)NC3=O)c3ccccc3n2)CC1 [sotrastaurin]
# In short: as §1
# [3] = compound: CN1CCc2c(c3ccccc3n2Cc2ccc(C(=O)NO)cc2)C1 [Tubastatin A]
# In short: as §1
# [4] = compound: CNC(=O)C1=CC=CC=C1NC2=NC(=NC=C2Cl)NC3=C(C=C(C=C3)N4CCOCC4)OC
# In short: as §1
# [5] = compound: CNC(=O)c1ccc(Nc2ncc(C(F)(F)F)c(NCc3nccnc3N(C)S(C)(=O)=O)n2)cc1 [defactinib]
# In short: as §1
# [6] = compound: CNCc1ccc(-c2[nH]c3cc(F)cc4c3c2CCNC4=O)cc1 [rucaparib]
# In short: as §1
# [7] = compound: CNc1nc(-c2ccc3c(N)n[nH]c3c2)cc(N2C[C@@H](C(=O)NC3CCCCC3)CC[C@H]2C)n1
# In short: as §1
# [8] = compound: COC(=O)N[C@@H](C)CNc1nccc(-c2cn(C(C)C)nc2-c2cc(Cl)cc(NS(C)(=O)=O)c2F)n1 [encorafenib]
# In short: as §1
# [9] = compound: COC(=O)[C@H](CCSC)NC(=O)C1=C(C=C(C=C1)NC[C@H](CS)N)C2=CC=CC=C2
# In short: as §1
# [10] = compound: CN1CC[C@H](c2c(O)cc(O)c3c(=O)cc(-c4ccccc4Cl)oc23)[C@H](O)C1 [alvocidib]
# In short: as §1
Target,log2 fold change [1],log2 fold change [2],log2 fold change [3],log2 fold change [4],log2 fold change [5],log2 fold change [6],log2 fold change [7],log2 fold change [8],log2 fold change [9],log2 fold change [10]
UBAP2L isoform 5 (UniProt Q14157),inactive: 0.017,inactive: 0.013,inactive: -0.006,inactive: -0.096,inactive: 0.009,inactive: 0.018,inactive: -0.006,inactive: -0.018,inactive: 0.015,
UBE2J2 isoform 3 (UniProt Q8N2K1),inactive: 0.07,inactive: 0.044,inactive: 0.091,inactive: -0.114,inactive: -0.061,inactive: 0.081,inactive: 0.055,inactive: 0.014,inactive: -0.053,
TTMP isoform 3 (UniProt Q5BVD1),inactive: -0.118,inactive: 0.027,inactive: 0.334,inactive: -0.134,,,inactive: 0.008,,,inactive: -0.002
TXNIP (UniProt Q9H3M7),inactive: -0.074,inactive: 0,inactive: 0.06,inactive: 0.179,inactive: -0.085,inactive: -0.026,inactive: 0.243,inactive: 0.01,inactive: 0.07,
TSFM (UniProt P43897),inactive: 0.057,inactive: -0.157,inactive: 0.063,inactive: 0.021,inactive: -0.166,inactive: -0.001,inactive: -0.073,inactive: 0.167,inactive: -0.082,
U2AF2 (UniProt P26368),inactive: 0.022,inactive: 0.056,inactive: -0.007,inactive: -0.181,inactive: -0.035,inactive: 0.163,inactive: -0.037,inactive: -0.037,inactive: 0.001,
TTC38 (UniProt Q5R3I4),inactive: -0.045,inactive: 0.086,active: 0.578,inactive: -0.062,inactive: -0.262,inactive: 0.435,inactive: 0.293,inactive: -0.02,inactive: -0.011,
UBAP1 isoform 4 (UniProt Q9NZ09),inactive: -0.023,inactive: -0.032,inactive: 0.007,inactive: -0.028,inactive: -0.08,inactive: 0.089,inactive: -0.053,inactive: -0.05,inactive: 0.006,
TXNDC17 (UniProt Q9BRA2),inactive: 0.019,inactive: -0.046,inactive: 0.022,inactive: -0.004,inactive: -0.052,inactive: 0.004,inactive: -0.029,inactive: -0.022,inactive: 0.022,inactive: -0.041
TTI1 (UniProt O43156),inactive: -0.065,inactive: -0.128,inactive: -0.007,inactive: -0.058,inactive: -0.046,inactive: 0.237,inactive: 0.053,inactive: 0.068,inactive: 0.004,
TSPAN31 (UniProt Q12999),inactive: 0.071,inactive: 0.114,inactive: -0.146,inactive: -0.171,,inactive: -0.082,inactive: 0,inactive: -0.081,,inactive: 0.048
UBE2E3 (UniProt Q969T4),inactive: -0.03,inactive: -0.044,inactive: -0.074,inactive: 0.067,inactive: -0.162,inactive: -0.014,inactive: -0.022,inactive: 0.017,inactive: -0.067,
UBE2S (UniProt Q16763),inactive: -0.001,inactive: -0.023,inactive: 0.2,inactive: -0.016,inactive: -0.082,inactive: -0.051,inactive: -0.041,inactive: 0.022,inactive: -0.007,
TUBGCP4 (UniProt Q9UGJ1),inactive: -0.115,inactive: -0.346,inactive: 0.184,inactive: -0.047,,inactive: 0.562,inactive: -0.014,inactive: 0.268,,inactive: 0.034
U2AF1 isoform 2 (UniProt Q01081),inactive: -0.027,inactive: -0.062,inactive: 0.042,inactive: -0.104,inactive: -0.086,inactive: 0.045,inactive: -0.009,inactive: 0.041,inactive: -0.075,
TXNL1 (UniProt O43396),inactive: -0.008,inactive: -0.068,inactive: 0.215,inactive: 0.034,inactive: -0.085,inactive: 0.019,inactive: 0.024,inactive: 0.062,inactive: -0.045,
UBE2K (UniProt D6RDM7),inactive: -0.14,inactive: 0.032,inactive: -0.064,,inactive: 0.098,inactive: -0.19,inactive: -0.196,inactive: -0.025,inactive: 0.083,inactive: 0.034
UBE2D1 (UniProt P51668),inactive: 0.03,inactive: 0.056,inactive: -0.058,inactive: -0.035,inactive: -0.016,inactive: 0.006,inactive: -0.105,inactive: 0.01,inactive: -0.047,
UBE2G2 (UniProt P60604),inactive: -0.183,inactive: 0.036,inactive: 0.076,inactive: -0.059,inactive: -0.003,inactive: 0.025,inactive: 0.023,inactive: -0.024,inactive: -0.077,inactive: -0.12
TTK (UniProt P33981),,,,,inactive: 0.201,,,,inactive: -0.021,
TSPAN13 (UniProt O95857),inactive: -0.055,inactive: 0.044,inactive: -0.11,inactive: 0.054,inactive: -0.104,,inactive: -0.029,,inactive: -0.291,
TTC5 (UniProt Q8N0Z6),inactive: -0.235,inactive: 0,,,,inactive: 0.158,inactive: 0.177,inactive: 0.017,,

# Reformatted with tabs: part of the list above.
Target	log2 fold change [1]	log2 fold change [2]	log2 fold change [3]	log2 fold change [4]	log2 fold change [5]	log2 fold change [6]	log2 fold change [7]	log2 fold change [8]	log2 fold change [9]	log2 fold change [10]
UBE2D1 (UniProt P51668)	inactive: 0.03	inactive: 0.056	inactive: -0.058	inactive: -0.035	inactive: -0.016	inactive: 0.006	inactive: -0.105	inactive: 0.01	inactive: -0.047	
UBE2G2 (UniProt P60604)	inactive: -0.183	inactive: 0.036	inactive: 0.076	inactive: -0.059	inactive: -0.003	inactive: 0.025	inactive: 0.023	inactive: -0.024	inactive: -0.077	inactive: -0.12
